Binding data for three molecules are collected here from article PMC3631140.

No constants are given. Whether binding was seen depends on the method and setting. Binding seen in cells or lysates may run through a third protein. For some assays here: Binding can be weak; no strength is given.

Test [1] concerns the target T1, Vav1 (human (endogenous in Jurkat)) (UniProt P15498).
T1 sequence: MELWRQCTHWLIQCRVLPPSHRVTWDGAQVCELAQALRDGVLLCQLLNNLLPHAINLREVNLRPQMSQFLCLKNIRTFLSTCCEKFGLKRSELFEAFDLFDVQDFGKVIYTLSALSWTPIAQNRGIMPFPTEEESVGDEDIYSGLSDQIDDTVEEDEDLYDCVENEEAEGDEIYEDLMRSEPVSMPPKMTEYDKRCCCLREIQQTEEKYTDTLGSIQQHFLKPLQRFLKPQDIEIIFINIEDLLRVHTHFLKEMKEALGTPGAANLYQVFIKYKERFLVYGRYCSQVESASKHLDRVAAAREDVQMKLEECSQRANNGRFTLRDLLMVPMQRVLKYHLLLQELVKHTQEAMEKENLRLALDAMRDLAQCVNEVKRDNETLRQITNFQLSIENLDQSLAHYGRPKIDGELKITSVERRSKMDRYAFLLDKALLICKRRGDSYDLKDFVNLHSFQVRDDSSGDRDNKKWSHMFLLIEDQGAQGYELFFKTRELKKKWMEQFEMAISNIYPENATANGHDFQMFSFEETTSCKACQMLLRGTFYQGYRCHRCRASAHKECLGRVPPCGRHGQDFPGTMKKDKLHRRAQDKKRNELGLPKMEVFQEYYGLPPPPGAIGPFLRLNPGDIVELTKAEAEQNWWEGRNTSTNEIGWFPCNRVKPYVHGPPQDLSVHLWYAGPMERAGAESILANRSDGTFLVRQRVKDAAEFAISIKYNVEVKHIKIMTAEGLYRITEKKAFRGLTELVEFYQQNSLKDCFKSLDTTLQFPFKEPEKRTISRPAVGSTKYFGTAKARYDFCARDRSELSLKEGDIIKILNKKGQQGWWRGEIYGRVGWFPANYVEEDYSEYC
The test is described as follows: condition: only after CXCL12 stimulation (200 ng/ml); co-IP; endogenous proteins, lysates of control Jurkat C21 cells after CXCL12 (200 ng/ml) stimulation; IP with anti-Vav1 or anti-talin, immunoblotting.

The target of test [2] is T1, Vav1 (human (endogenous in Jurkat)). In words: co-IP; endogenous proteins, lysates of control Jurkat C21 cells, unstimulated or stimulated with CXCL12 (200 ng/ml), pretreated with DMSO or piceatannol (25 µM); IP with anti-Vav1, anti-talin, anti-integrin β1 or anti-pVav1, immunoblotting. In general terms: A western blot detects proteins with antibodies after separation by electrophoresis.

Test [3] deals with talin (human (endogenous in Jurkat)). Described as above.
Test [4] has the same target. In words: condition: only after CXCL12 stimulation (200 ng/ml); co-IP; endogenous proteins, lysates of control Jurkat C21 cells after CXCL12 (200 ng/ml) stimulation; IP with anti-Vav1 or anti-talin, immunoblotting.

Turning to talin (human (endogenous in Jurkat)), the values for the binding result in test [1] and in test [2] were “no binding” and “binds”, respectively.

B1: GM-CSF/IL-3/IL-5 receptor common beta-chain-associated protein (CBAP) (protein, UniProt Q8N9M5 1-508)
chain: MASAVWGSAPWWGPPPPAPARPLTDIDFCSGAQLQELTQLIQELGVQESWSDGPKPGADLLRAKDFVFSLLGLVHRRDPRFPPQAELLLLRGGIREGSLDLGHAPLGPYARGPHYDAGFTLLVPMFSLDGTELQLDLESCYAQVCLPEMVCGTPIREMWQDCLGPPVPGARDSIHRTESEESSKDWQSSVDQPHSYVTEHEAPVSLEKSPSDVSASESPQHDVVDLGSTAPLKTMSSDVTKAAVESPVPKPSEAREAWPTLCSAQVAAWFFATLAAVAESLIPVPGAPRLVHAARHAGFTTVLLATPEPPRRLLLFDLIPVVSVAGWPEGARSHSWAGPLASESASFYLVPGGGTERPCASAWQLCFARQELALKARIPAPLLQAHAAAQALLRPLVAGTRAAAPYLLRTLLYWACERLPALYLARPENAGACCLGLLDELGRVLEAGTLPHYFLNGRQLRTGDDSAALLGELARLRGDPARALRAAVEEAKVARKGGGLAGVGGGAH
For B1, the binding result in test [3] is on record as “binds”.

B2: Vav1 (protein, UniProt P15498 1-845)
chain: T1 sequence
B2: the binding result is listed as “no binding” in test [4] and “binds” in test [3].
